Data published in PMC6799953.
These are yes or no findings as the source states them, for the method shown.

Molecular target: T1, Rad5 (yeast), P32849
T1 chain: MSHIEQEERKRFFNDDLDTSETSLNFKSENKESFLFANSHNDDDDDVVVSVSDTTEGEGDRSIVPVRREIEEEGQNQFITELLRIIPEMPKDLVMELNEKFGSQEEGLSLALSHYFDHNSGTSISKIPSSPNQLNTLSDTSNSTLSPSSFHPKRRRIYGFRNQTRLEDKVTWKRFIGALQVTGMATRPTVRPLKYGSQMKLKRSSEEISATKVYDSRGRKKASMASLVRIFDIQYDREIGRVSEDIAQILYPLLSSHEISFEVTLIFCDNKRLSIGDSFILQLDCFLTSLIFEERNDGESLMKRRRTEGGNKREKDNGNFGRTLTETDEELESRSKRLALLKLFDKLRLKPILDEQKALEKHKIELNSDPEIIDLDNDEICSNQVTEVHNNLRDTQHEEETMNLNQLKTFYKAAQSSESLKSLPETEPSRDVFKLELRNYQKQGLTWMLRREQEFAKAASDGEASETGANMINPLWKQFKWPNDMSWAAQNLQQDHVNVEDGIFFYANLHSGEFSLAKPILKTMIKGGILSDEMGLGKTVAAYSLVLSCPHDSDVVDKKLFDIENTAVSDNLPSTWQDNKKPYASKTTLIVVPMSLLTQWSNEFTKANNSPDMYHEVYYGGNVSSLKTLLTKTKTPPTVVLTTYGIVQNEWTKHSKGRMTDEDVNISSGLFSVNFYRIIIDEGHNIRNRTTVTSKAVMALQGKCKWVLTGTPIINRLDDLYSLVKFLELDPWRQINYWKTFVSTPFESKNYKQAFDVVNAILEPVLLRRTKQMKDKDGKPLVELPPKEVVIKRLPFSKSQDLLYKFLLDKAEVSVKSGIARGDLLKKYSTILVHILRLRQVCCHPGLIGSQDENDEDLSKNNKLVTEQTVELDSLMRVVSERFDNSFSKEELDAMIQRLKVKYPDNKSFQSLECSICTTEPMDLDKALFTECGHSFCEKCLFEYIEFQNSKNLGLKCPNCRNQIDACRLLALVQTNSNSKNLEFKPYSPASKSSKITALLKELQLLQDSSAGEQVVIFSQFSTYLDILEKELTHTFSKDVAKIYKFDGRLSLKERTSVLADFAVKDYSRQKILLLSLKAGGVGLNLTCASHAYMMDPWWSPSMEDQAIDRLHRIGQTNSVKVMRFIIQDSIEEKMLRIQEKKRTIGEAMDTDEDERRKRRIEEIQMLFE
Experiment: SEC-MALS; multi-angle light scattering of purified Rad5 with an A280 trace; molar mass of peak 1 compared with the expected mass of the monomer; conditions not given; both purified
Settings: remark: other sources report otherwise

B1: Rad5, P32849 1-1169 (enzyme)
chain: T1 chain
Q: Which binding does the source give for B1 here?
A: Its binding is “no binding”.
